This test can be described thus: qHTS Assay for Lipid Storage Modulators in Drosophila S3 Cells.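 On cell number change: cells counted by Cell Tracker Red CMTPX staining in the red channel.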 The following applies: BODIPY lipid droplet fluorescence, 18-24 h; for cell number change: measured here: cell count max response, cells fed with added oleic acid. Put shortly: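 Drosophila S3 cells loaded with oleic acid (400 uM, as added) and compounds at several concentrations; lipid droplets imaged by 488-nm laser-scanning cytometry, 500–530 nm intensity and object ratio to cell channel. Percent activity normalized to 20 uM Triacsin C.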

Where [1] appears, read: measured here: cell number channel AC50, cells fed with added oleic acid.
Where [2] appears, read: measured here: lipid fluorescence (Fed channel) AC50, cells fed with added oleic acid.

The other results are listed elsewhere or left out. Further columns of the screen follow, without active or inactive calls. Most of these compounds were active or inconclusive in the main read-out, so they are no random draw. The note in brackets gives the kind of curve behind each potency; many fits are weak.

With `Cc1nc(-n2ncc(C#N)c2N)c2c3c(sc2n1)CCC3`, the AC50 is 2.06 µM [rising, partial curve] under setting [1] and 3.26 µM [rising, partial curve] under setting [2].

Take `O=C(c1ccccc1)c1c2c(cc3sc4ccccc4[n+]13)-c1cccc3cccc-2c13`: the cell number change is -46%. The AC50 under setting [1] was 5.8 µM [falling, full curve]. Under setting [2], the AC50 was 1.46 µM [falling, full curve].

`Cc1ccc(CN2CC(C(=O)Nc3ccc(C)cn3)CC2=O)cc1` (centres undefined): the cell number change is 21%. Under setting [2], the half-maximal activity concentration (AC50) was 25.9 µM [rising, single point].

For `O=c1nc2n(c3ccccc13)Cc1ccccc1-2`, the cell number change was determined as 9.65%. Also, the AC50 under setting [2] is 6.51 µM [rising, single point].

`Cc1ccc(OCC(=O)Nc2ccccc2N2CCOCC2)c(C)c1`: the cell number change came to 0.188%.

As to `CCOC(=O)c1c(C)[nH]c(C(=O)/C(C#N)=C/c2ccc(OC(F)F)c(OC)c2)c1C`, the cell number change was 42.1%. The half-maximal activity concentration (AC50) under setting [1] was 5.17 µM [rising, partial curve].

Regarding `Cc1cc(C)n2c(Br)c(CSc3nc4ccccc4o3)nc2n1`, the cell number change was 2.84%. Moreover, under setting [2], the half-maximal activity concentration (AC50) is 25.9 µM [rising, single point].

With `O=C(O)c1ccccc1SCc1cn2cc(Cl)ccc2n1`, the cell number change worked out at 16.7%. For the same molecule, the half-maximal activity concentration (AC50) under setting [1] is 1.64 µM [falling, partial curve].

`COc1ccc(-c2csc(-c3ccc(O)cc3)n2)cc1`: the cell number change is -48.8%. For the same molecule, under setting [1], the AC50 is 29.1 µM [falling, single point]. For the same molecule, under setting [2], the half-maximal activity concentration (AC50) is 29.1 µM [falling, single point].

Take `CC12CCC(=O)N1C(C(=O)NNC(=O)c1ccc(Br)cc1)CS2` (centres undefined): the cell number change was 3%.

Take `Cc1occc1-c1nnc(SCC(=O)Nc2nc(-c3ccccc3)cs2)o1`: the cell number change was -52.9%. Also, under setting [1], the AC50 was 20.6 µM [falling, single point]. Moreover, under setting [2], the concentration at half-maximal activity (AC50) was 18.4 µM [falling, single point].

As to `O=C(Nc1ccc(F)cc1)C1C2CCC3C(CCC21)C3(Cl)Cl` (centres undefined), the cell number change turned out to be 16.4%.

On to `CN1C(=O)/C(=C\c2ccco2)N=C1c1ccc(Cl)cc1Cl`, for which the cell number change was 6.28%. The AC50 under setting [2] is 20.6 µM [rising, single point].

As for `COc1ccc(N2C(=O)C3C(C2=O)C2C=CC3C23CC3)c(OC)c1` (centres undefined), the cell number change was -0.0696%. Further, the AC50 under setting [2] was 14.6 µM [falling, partial curve, poor fit].

Take `Cc1cccn2cc(CCNC(=O)c3ccco3)nc12`: the cell number change is -3.43%.

`O=C(N/N=C/c1ccncc1)C1CC1C(=O)N/N=C/c1ccncc1` (centres undefined): the cell number change is -7.07%.

As to `COc1cccc(N(C(=O)c2cnccn2)C(C(=O)NC2CCCCC2)c2ccc(Cl)cc2)c1` (centres undefined), the AC50 under setting [2] is 0.411 µM [rising, partial curve, poor fit].

Consider `CCOc1ccc(N(CC(=O)Nc2cccc(Cl)c2)S(=O)(=O)c2c(C)noc2C)cc1`, for which the cell number change was -12.5%. For the same molecule, the half-maximal activity concentration (AC50) under setting [2] is 0.58 µM [falling, partial curve].

Take `COc1ccccc1-c1nc2cc(Cl)ccc2c(=O)n1O`: the cell number change amounted to 19.9%. Under setting [2], the concentration at half-maximal activity (AC50) is 3.66 µM [falling, single point].

Consider `CC(C)C(NC(=O)c1ccccc1Cl)C(=O)OCc1nc2scc(-c3ccccc3Cl)c2c(=O)[nH]1` (centres undefined), for which the cell number change was determined as 15.8%. In addition, under setting [2], the concentration at half-maximal activity (AC50) was 29.1 µM [rising, single point].

In the case of `Cc1ccc2oc(=O)c3cc(C(=O)NCCCN4CCCCCC4)sc3c2c1`, the cell number change was -5.67%.

Consider `Cc1ccc(NC(=O)c2cnn(-c3ccccc3)c2NC(=O)c2ccco2)cc1`, for which the cell number change came out at 0.84%. Also, the AC50 under setting [2] was 0.651 µM [falling, single point].

`NC(=O)COc1ccc2cc(-c3ccccc3)c(=O)oc2c1`: the cell number change is -16.4%. Further, under setting [2], the concentration at half-maximal activity (AC50) was 0.206 µM [falling, full curve, poor fit].

As for `O=C(CCNS(=O)(=O)c1ccc(OC(F)(F)F)cc1)N1CCCC1`, the cell number change was -0.803%.

Take `CC(C)Cn1cnc2c1c(=O)n(CC(=O)Nc1ccc3c(c1)OCO3)c(=O)n2Cc1ccccc1`: the cell number change was 54.8%. Besides, under setting [1], the half-maximal activity concentration (AC50) was 20.6 µM [rising, single point]. Also, the AC50 under setting [2] was 16.4 µM [rising, partial curve].

On to `Cc1ccc(N(C(=O)Cn2nnc(-c3ccccc3F)n2)C(C(=O)NC2CCCC2)c2ccncc2)cc1` (centres undefined), for which the cell number change was -25.7%.

Consider `Cc1ccccc1Cn1nnc(-c2ccc(F)cc2)n1`, for which the cell number change is -30.6%. In addition, under setting [2], the half-maximal activity concentration (AC50) was 0.651 µM [falling, partial curve, poor fit].

Regarding `COc1ccc2oc(C(=O)NNC(=O)c3ccc(F)cc3)c(C)c2c1`, under setting [2], the AC50 is 13 µM [rising, partial curve].

`O=C(O)c1cc([N+](=O)[O-])ccc1Nc1ccccc1`: the cell number change was -37%. The concentration at half-maximal activity (AC50) under setting [1] was 5.8 µM [falling, partial curve]. Under setting [2], the AC50 was 6.51 µM [rising, single point].

For the molecule `CC12CN3CC(C)(CN(C1)C31C(=O)N(Cc3ccccc3)c3ccccc31)C2=O` (centres undefined), the cell number change was determined as 13.7%. Also, the AC50 under setting [2] is 20.6 µM [rising, single point].

With `Cc1ccc2c(c1)N(C(=O)CCC(=O)N1CCc3ccccc3C1)CCO2`, the cell number change is -17.4%.

On to `CC(=O)c1ccc(OCC(O)CN2CCN(c3ccccn3)CC2)cc1` (centres undefined), for which the AC50 under setting [2] was 8.2 µM [falling, partial curve, poor fit].

Turning to `CCOC(=O)c1c(C)[nH]c(C)c1C(=O)COC(=O)c1cccnc1SC`, the cell number change was -4.89%. Moreover, the AC50 under setting [2] was 0.731 µM [falling, partial curve, poor fit].

Consider `CCOC(=O)C1CCCN(Cc2ccc(OC)cc2OC)C1` (centres undefined), for which the cell number change is -14.9%. For the same molecule, the concentration at half-maximal activity (AC50) under setting [2] was 0.517 µM [falling, full curve].

Take `CC(C)(C)C(=O)/C=C/Nc1ccccc1O`: the cell number change is -9.59%. Also, the AC50 under setting [1] was 0.82 µM [falling, partial curve]. The AC50 under setting [2] is 4.11 µM [rising, single point].

For `O=C(CC1(O)C(=O)Nc2ccccc21)c1cccc(Br)c1` (centres undefined), the cell number change was 2.33%. For the same molecule, the AC50 under setting [2] is 9.2 µM [falling, partial curve].

Take `Cc1cccc(S(=O)(=O)c2c(N)n(/N=C/c3cccnc3)c3nc4ccccc4nc23)c1`: the cell number change was -2.39%.

In the case of `CNC(=S)N/N=C(\C)c1cccc(C(F)(F)F)c1`, the concentration at half-maximal activity (AC50) under setting [2] was 3.26 µM [rising, single point].

For the molecule `COc1cc(C(C)=O)ccc1OC(=O)c1cc2cccc(OC)c2oc1=O`, the cell number change was -1.06%.

As to `COc1cccc(CN2CCC(n3nccc3NC(=O)CCCc3ccccc3)CC2)c1O`, the cell number change was -23.8%. Further, the half-maximal activity concentration (AC50) under setting [2] is 6.51 µM [falling, single point].

For the molecule `CC1CCC(N2CCN(c3ncccn3)CC2)C1` (centres undefined), the cell number change is -29.5%.

For `CN(CC(=O)Nc1ccccc1Cl)CC(=O)N1CCc2ccccc21`, the cell number change amounted to 12.4%. In addition, the AC50 under setting [2] is 2.06 µM [rising, full curve].

By AC50 is commonly meant the midpoint of the concentration-response curve, whichever way the signal moves. A high value points to weaker potency.

For the origin of these results see PubChem BioAssay AID2685 (National Center for Advancing Translational Sciences (NCATS), 2010).
